Earlier results as cited in US9561225B2, “Pharmaceutical formulation containing opioid agonist, opioid antagonist and gelling agent” (Purdue Pharma L.P., priority 2001, dated 2017).
Where a name gives a salt, the structure may show the parent alone.

Tests used:
[1] = oral administration
[2] = hydrochloride salt

| Compound | oral bioavailability [1] | solubility in water [2] |
| --- | --- | --- |
| O=C1CC[C@@]2(O)[C@H]3Cc4ccc(O)c5c4[C@@]2(CCN3CC2CC2)[C@H]1O5 [naltrexone] | 5-40% | – |
| O=C1CC[C@@]2(O)[C@H]3Cc4ccc(O)c5c4[C@@]2(CCN3CC2CC2)[C@H]1O5 [hydrochloride salt of naltrexone, naltrexone hydrochloride] | – | about 100 mg/cc |
